Sequences of proteins named here, by UniProt entry; tags and fusion partners are left off.
UniProt Q0JBA9, entry or part of it: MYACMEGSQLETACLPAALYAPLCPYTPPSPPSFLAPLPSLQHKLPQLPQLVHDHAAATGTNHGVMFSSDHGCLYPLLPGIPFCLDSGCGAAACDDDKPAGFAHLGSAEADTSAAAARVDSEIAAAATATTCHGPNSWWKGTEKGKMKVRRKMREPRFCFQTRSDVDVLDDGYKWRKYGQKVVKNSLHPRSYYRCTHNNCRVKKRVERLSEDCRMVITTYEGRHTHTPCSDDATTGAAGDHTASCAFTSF

Some of the results follow.
Each sequence was assayed against OsWRKY34 (Oryza sativa, UniProt Q0JBA9 1-250) (assay: protein-binding microarray (RPBM); PBS, 2% BSA, 51.3 ng/ul salmon testes DNA, 50 uM zinc acetate, 200 nM TF, 25 C, 1 h; high values mean tight binding). Conditions: protein: recombinant; tags: N-terminal polyhistidine and DsRed monomer fusion (pET32a); label: CyDye5-dUTP incorporated in the synthesized complementary strand; 3' TTTTT single-stranded linker to array surface; dsDNA, one strand shown.
How it was run: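 Binding signal here means per-feature fluorescence intensity in arbitrary units. The values were read on an Axon 4000B scanner after a custom Agilent array, double-stranded by primer extension with Cy5-dUTP, was incubated with 200 nM protein at 25 °C for 1 h in PBS with 2% BSA, salmon testes DNA and 50 µM zinc acetate, then washed. The proteins were transcription factors with an N-terminal polyhistidine tag and DsRed, expressed in E. coli BL21-CodonPlus and purified on Ni–NTA.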
“ACTGGTTGACTGACTTGTAATAACGTCTGCCATCTCTCTCCGGAGTCACCTAGTGCAG” was tested, and the binding signal was 10400 fluorescence intensity (a.u.).
For “CGCTCCAGCCAAACGCATCATCTCAGCCGTCGCCCCTCACCGGAGTCACCTAGTGCAG”, the binding signal was 10000 fluorescence intensity (a.u.).
With “TCCGTATTTGATTCCAAGTTTTCGACTACTAGTTTTCTCACGGAGTCACCTAGTGCAG” the binding signal was 9010 fluorescence intensity (a.u.).
For “TTCTCCACCTCTCTTGCTCTCTCGCCCTCTTCACCAAGAACGGAGTCACCTAGTGCAG”, the binding signal was 8660 fluorescence intensity (a.u.).
With “GATCTCCGACCGCCGTCTAATGCCGCCGCCGCCACCTCCGCGGAGTCACCTAGTGCAG” the binding signal was 11600 fluorescence intensity (a.u.).
For “TGTTGTTGGTTCCCTCTCCACGGCGACCTCATTGCCTCTCCGGAGTCACCTAGTGCAG”, the binding signal was 8200 fluorescence intensity (a.u.).
For “AGAGTACCAGCAACCGCACATCACCGGCACCGCACATCACCGGAGTCACCTAGTGCAG”, the binding signal was 8140 fluorescence intensity (a.u.).
“GTAGGCCTTGTACCGTACGTTGCTGTTCCATTTTCCATACCGGAGTCACCTAGTGCAG” was tested, and the binding signal was 9220 fluorescence intensity (a.u.).
In the case of “CAACCCAACGCCGGTCCGTCGCCCACCGCCCTCCGCGCGCCGGAGTCACCTAGTGCAG”, the binding signal is reported as 9150 fluorescence intensity (a.u.).
In the case of “CGCGCTGTTTTTATTGACCATTTTTTGTGGGTTTTAGCGACGGAGTCACCTAGTGCAG”, the binding signal is reported as 8650 fluorescence intensity (a.u.).
In the case of “ACCCGATCCATTGCACATTTGCACTCAACTGTTTCGCCCTCGGAGTCACCTAGTGCAG”, the binding signal is reported as 9530 fluorescence intensity (a.u.).
For “CGTCACCCACACGCACGCACGCACGTACGGCGCGGACATGCGGAGTCACCTAGTGCAG”, the binding signal was 12300 fluorescence intensity (a.u.).
In the case of “CCCCACACTGCCCCACACATCCATCGCCGGATTCGCCTCCCGGAGTCACCTAGTGCAG”, the binding signal is reported as 8160 fluorescence intensity (a.u.).
For “CCGTCCGCTGTTTCGTGATATTTTCCAATTTTCCACCTGTCGGAGTCACCTAGTGCAG”, the binding signal was 10000 fluorescence intensity (a.u.).
For “GGTAGAGGCGGCAAATTCATAAGAAGGTTTTTTGTTTTGACGGAGTCACCTAGTGCAG”, the binding signal was 8100 fluorescence intensity (a.u.).
In the case of “TTTGCACTATTCACGTTCAACGTTTGACCGTTCGTCTTATCGGAGTCACCTAGTGCAG”, the binding signal is reported as 9300 fluorescence intensity (a.u.).
In the case of “CCCTCCGTATTTTAATGTATGACGCCGTTGACTTTTTGACCGGAGTCACCTAGTGCAG”, the binding signal is reported as 26800 fluorescence intensity (a.u.).
“CCAACTCGCAGTCGTTTGCCAACACCGGCGTGCTTGTCACCGGAGTCACCTAGTGCAG” was tested, and the binding signal was 8040 fluorescence intensity (a.u.).
“AAATATACAACTCTTGGACGCCCTTACATCTCTCCATTGTCGGAGTCACCTAGTGCAG” was tested, and the binding signal was 8230 fluorescence intensity (a.u.).
In the case of “CTCCGTCGCGTTTTTCATCCACTGTCCATTAATTTCCTAACGGAGTCACCTAGTGCAG”, the binding signal is reported as 12100 fluorescence intensity (a.u.).
“GCTCCGACAGTGGATCCTTGTCCATGGTGTTGGCGAGGGGCGGAGTCACCTAGTGCAG” was tested, and the binding signal was 8320 fluorescence intensity (a.u.).
“ATAATTGCCATGCATGCACGTTGTCGTTCGTCGACCTTCCCGGAGTCACCTAGTGCAG” was tested, and the binding signal was 8690 fluorescence intensity (a.u.).
For “TGAGTATAGGGTTTTTTTTGTAACATATGCAGCCAGGTGCCGGAGTCACCTAGTGCAG”, the binding signal was 8890 fluorescence intensity (a.u.).
“ACGGAACCACACACGTGGATTTTTCATTTTTCCTTTTTTCCGGAGTCACCTAGTGCAG” was tested, and the binding signal was 8820 fluorescence intensity (a.u.).
In the case of “GCGGAGGGGCGCATGGTGCTGGTGGCACACCCGACGGGGCCGGAGTCACCTAGTGCAG”, the binding signal is reported as 8450 fluorescence intensity (a.u.).
“CCTCATTTGCATTTTTCAGTTCTGGAATGCCCCTTGATTTCGGAGTCACCTAGTGCAG” was tested, and the binding signal was 10800 fluorescence intensity (a.u.).
In the case of “ATTAGTTTTTTTGTTTTGTGTGCGTTGAAAATATCTCTCCCGGAGTCACCTAGTGCAG”, the binding signal is reported as 8680 fluorescence intensity (a.u.).
In the case of “GTCTGCGTTCGATTTCGCACATGCCCGCACCGCACTATCCCGGAGTCACCTAGTGCAG”, the binding signal is reported as 9910 fluorescence intensity (a.u.).
“ATCGATCGGAGCCGTCGGATCAACTTCATCTGTTGGTTTTCGGAGTCACCTAGTGCAG” was tested, and the binding signal was 8550 fluorescence intensity (a.u.).
“TCTTTCGCTCTATGCTATATTTATCAATCTACATCGTTATCGGAGTCACCTAGTGCAG” was tested, and the binding signal was 11700 fluorescence intensity (a.u.).
With “GAACACCTCGCGAGCTTCCTCTCCTCCTCTGCATCGCGATCGGAGTCACCTAGTGCAG” the binding signal was 8290 fluorescence intensity (a.u.).
In the case of “GAAAGGAGCTGTGTATGGGATGTTTTCGTTGGTCACGAATCGGAGTCACCTAGTGCAG”, the binding signal is reported as 8170 fluorescence intensity (a.u.).
With “TTCATACCATCTTATTTTGTTCCCTGCTTATTTCATTTTCCGGAGTCACCTAGTGCAG” the binding signal was 14500 fluorescence intensity (a.u.).
With “AGAACAATTTTCTCGTGCATTTTCATTAGCGTTTCCCAGACGGAGTCACCTAGTGCAG” the binding signal was 8320 fluorescence intensity (a.u.).
“CTTGCACGTACTACTGTTTGTCGTCTCATTTCTGTATTTGCGGAGTCACCTAGTGCAG” was tested, and the binding signal was 8440 fluorescence intensity (a.u.).
“AACAAGCTCTTTGAAACCATGGAAGCTAGCCTTTGTTTGCCGGAGTCACCTAGTGCAG” was tested, and the binding signal was 8500 fluorescence intensity (a.u.).
“CATGGCGTCTCCCCTGACCACCACGCCTCCACCACCTCCGCGGAGTCACCTAGTGCAG” was tested, and the binding signal was 8710 fluorescence intensity (a.u.).
In the case of “TTGACGATTTCTTTTTTTCTTTTTTTGAGGTTCTTCTTATCGGAGTCACCTAGTGCAG”, the binding signal is reported as 9680 fluorescence intensity (a.u.).
In the case of “AATCACAGCACCATCGATTTGATGCCAACTCACATGTTACCGGAGTCACCTAGTGCAG”, the binding signal is reported as 8980 fluorescence intensity (a.u.).
For “CCGTCGCCGGCCGCAACCACCACCACCACTCGCCGTCGCCCGGAGTCACCTAGTGCAG”, the binding signal was 13500 fluorescence intensity (a.u.).
In the case of “AGATGTGCAATGTTTTTTCTTTGATGTTCCACACAACAGGCGGAGTCACCTAGTGCAG”, the binding signal is reported as 9290 fluorescence intensity (a.u.).
“TGTCTGTCTCACATATTTTCTTGGTTCCTATGCTTAAACTCGGAGTCACCTAGTGCAG” was tested, and the binding signal was 11100 fluorescence intensity (a.u.).

Reference: paper PMC7819943, “Rice protein-binding microarrays: a tool to detect cis-acting elements near promoter regions in rice”
